Values of other authors as cited in US20230295575A1, “METHODS OF INCREASING MATURATION OF HEART, PANCREATIC BETA-CELLS, AND NEURONS” (Yissum Research Development Company of the Hebrew …, priority 2020, published 2023).
For at least one compound, name, drawing or mass did not settle the structure.

Test system: AFP
Conditions: neonatal rats; cited from earlier work

For `CC(C)OC(=O)C(C)(C)Oc1ccc(C(=O)c2ccc(Cl)cc2)cc1` [fenofibrate], the AFP silencing is given as “retarded AFP silencing”.
